{"source": "patent US20100150948A1", "about": "“MATERIALS AND METHODS FOR IMPROVED IMMUNOGLYCOPROTEINS” (TRUBION PHARMACEUTICALS, INC., priority 2006, published 2010)", "tested_on": "CHO cells transfected with TRU-016", "assay": "Effect of castanospermine concentration on cell viability, density and specific protein production of TRU-016", "format": "cell-based, Chinese hamster", "conditions": "duplicate flasks", "description": "Prior to initiation of the experiments, CHO cells transfected with TRU-016 were grown in shake flasks in Ex-Cell™ 302 CHO serum-free media (SAFC Biosciences) supplemented with 1× non-essential amino acids (MediaTech), 1× sodium pyruvate (MediaTech), 4 mM L-glutamine (MediaTech), 500 nM methotrexate (MP Biomedicals) and 1 mg/L recombinant insulin (Recombulin—GIBCO/Invitrogen Corp.) at 37° C. and 5% carbon dioxide in a humidified incubator. A 200 mM stock concentration of castanospermine (Alexis Biochemicals) was prepared by dilution of the castanospermine in sterile, distilled/deionized water (MediaTech) and filtration through a 13 mm Acrodisc® with a 0.2 μm HT Tuffryn membrane (Pall Corporation). Stock solution was aliquoted into sterile, O-ringed, 0.5 mL microcentrifuge tubes (Fisherbrand, Fisher Scientific) and frozen at −20° C. Approximately 1 hour prior to initiation of experiments, needed aliquots were thawed at room temperature and the contents of each vial mixed well by vortexing.\nFor each experiment, cells in log phase growth were seeded in the above medium into a total volume of 60 mL in 250 mL shaker flasks at a density of 200,000 cells/mL and CS added at the concentration to be tested. Final CS concentrations of 800 μM, 400 μM, 200 μM, 100 μM, 50 μM, 25 μM and 0 μM were each tested in duplicate flasks. All cultures were incubated at 37° C. and 5% carbon dioxide in a humidified incubator and monitored at least every other day for viable cell density and overall cell viability.\nCultures were harvested on day 8 when overall cell viability was 50-70% (Expt. 1) and 30-50% (Expt. 2). Cells and cellular debris were removed by centrifugation in a Sorvall Super T21 at 3000 rpm for 20 minutes after which the supernatant was sterile filtered through a Millipore Steriflip unit with a 0.22 μm Millipore Express Plus membrane and stored at 2-8° C. until purification.", "note": "Where “and” joins values, the source holds several entries; their conditions need not be identical. Identical values can stand only once."}
{"smiles": "O[C@H]1[C@H](O)[C@@H](O)CN2CC[C@H](O)[C@H]12", "note": "[castanospermine]", "values": [{"measurement": "Specific Productivity (pg/cell/day)", "setting": "CS 25 μM, listed as CS", "result": "8.22 pg/cell/day and 8.78 pg/cell/day"}, {"measurement": "Specific Productivity (pg/cell/day)", "setting": "CS 50 μM, listed as CS", "result": "8.15 pg/cell/day and 8.27 pg/cell/day"}, {"measurement": "Specific Productivity (pg/cell/day)", "setting": "CS 100 μM, listed as CS", "result": "7.48 pg/cell/day and 7.49 pg/cell/day"}, {"measurement": "Specific Productivity (pg/cell/day)", "setting": "CS 200 μM, listed as CS", "result": "6.60 pg/cell/day and 6.47 pg/cell/day"}, {"measurement": "Specific Productivity (pg/cell/day)", "setting": "CS 400 μM", "result": 5.48, "unit": "pg/cell/day"}, {"measurement": "Specific Productivity (pg/cell/day)", "setting": "CS 400 μM, listed as CS", "result": 5.53, "unit": "pg/cell/day"}, {"measurement": "Specific Productivity (pg/cell/day)", "setting": "CS 800 μM, listed as CS", "result": "3.99 pg/cell/day and 4.36 pg/cell/day"}]}
